For the assay, the target named is GST-ETV4(1-480)(K1234R) (mouse) (UniProt P28322). Description: pull-down; GST pulldown: GST-ETV4 forms (SUMOylated in a bacterial expression system, or not) as bait, recombinant MBP-RNF4 as prey; pulled down RNF4 detected by immunoblotting with anti-RNF4 antibody (Figure 1C-F); both purified. (In general: A western blot detects proteins with antibodies after separation by electrophoresis.)

The chains behind the UniProt entries cited, without tags or fusion partners. Where a name states a change or a piece, a line headed by the entry shows the natural chain unless it says otherwise.
UniProt P28322: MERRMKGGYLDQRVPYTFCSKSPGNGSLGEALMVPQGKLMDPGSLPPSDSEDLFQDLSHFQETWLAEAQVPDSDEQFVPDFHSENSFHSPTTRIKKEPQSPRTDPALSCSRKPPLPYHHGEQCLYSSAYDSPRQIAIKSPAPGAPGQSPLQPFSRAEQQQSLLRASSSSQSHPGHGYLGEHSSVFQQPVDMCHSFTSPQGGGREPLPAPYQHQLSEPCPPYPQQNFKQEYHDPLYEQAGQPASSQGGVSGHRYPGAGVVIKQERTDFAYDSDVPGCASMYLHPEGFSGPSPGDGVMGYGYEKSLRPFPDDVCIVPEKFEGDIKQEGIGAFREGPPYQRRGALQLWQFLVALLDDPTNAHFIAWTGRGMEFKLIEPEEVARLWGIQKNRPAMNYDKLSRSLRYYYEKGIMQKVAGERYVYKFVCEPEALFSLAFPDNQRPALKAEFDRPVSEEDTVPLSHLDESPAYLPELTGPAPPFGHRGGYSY

No constants are given. Whether binding was seen depends on the method and setting. Where a sequence is shown, tags or fusion partners need not be part of it.

B1: MBP-RNF4(WT) (protein, UniProt O88846 1-194)
chain: MSTRNPQRKRRGGAVNSRQTQKRTRETTSTPEISLEAEPIELVETVGDEIVDLTCESLEPVVVDLTHNDSVVIVEERRRPRRNGRRLRQDHADSCVVSSDDEELSKDKDVYVTTHTPRSTKDEGTTGLRPSGTVSCPICMDGYSEIVQNGRLIVSTECGHVFCSQCLRDSLKNANTCPTCRKKINHKRYHPIYI
As for B1, the binding result is “no binding”.

Source of the values: publication PMC5445624.
